Reference: paper PMC9998969
Results are given in words; binding and its absence hold for the method and conditions named. Binding seen in cells or lysates may run through a third protein. Some binding calls cover weakened binding; strength is not graded here. For some assays here: Tags and fused reporters may be left off the sequences shown.

The chains behind the UniProt entries cited, without tags or fusion partners.
UniProt Q14573: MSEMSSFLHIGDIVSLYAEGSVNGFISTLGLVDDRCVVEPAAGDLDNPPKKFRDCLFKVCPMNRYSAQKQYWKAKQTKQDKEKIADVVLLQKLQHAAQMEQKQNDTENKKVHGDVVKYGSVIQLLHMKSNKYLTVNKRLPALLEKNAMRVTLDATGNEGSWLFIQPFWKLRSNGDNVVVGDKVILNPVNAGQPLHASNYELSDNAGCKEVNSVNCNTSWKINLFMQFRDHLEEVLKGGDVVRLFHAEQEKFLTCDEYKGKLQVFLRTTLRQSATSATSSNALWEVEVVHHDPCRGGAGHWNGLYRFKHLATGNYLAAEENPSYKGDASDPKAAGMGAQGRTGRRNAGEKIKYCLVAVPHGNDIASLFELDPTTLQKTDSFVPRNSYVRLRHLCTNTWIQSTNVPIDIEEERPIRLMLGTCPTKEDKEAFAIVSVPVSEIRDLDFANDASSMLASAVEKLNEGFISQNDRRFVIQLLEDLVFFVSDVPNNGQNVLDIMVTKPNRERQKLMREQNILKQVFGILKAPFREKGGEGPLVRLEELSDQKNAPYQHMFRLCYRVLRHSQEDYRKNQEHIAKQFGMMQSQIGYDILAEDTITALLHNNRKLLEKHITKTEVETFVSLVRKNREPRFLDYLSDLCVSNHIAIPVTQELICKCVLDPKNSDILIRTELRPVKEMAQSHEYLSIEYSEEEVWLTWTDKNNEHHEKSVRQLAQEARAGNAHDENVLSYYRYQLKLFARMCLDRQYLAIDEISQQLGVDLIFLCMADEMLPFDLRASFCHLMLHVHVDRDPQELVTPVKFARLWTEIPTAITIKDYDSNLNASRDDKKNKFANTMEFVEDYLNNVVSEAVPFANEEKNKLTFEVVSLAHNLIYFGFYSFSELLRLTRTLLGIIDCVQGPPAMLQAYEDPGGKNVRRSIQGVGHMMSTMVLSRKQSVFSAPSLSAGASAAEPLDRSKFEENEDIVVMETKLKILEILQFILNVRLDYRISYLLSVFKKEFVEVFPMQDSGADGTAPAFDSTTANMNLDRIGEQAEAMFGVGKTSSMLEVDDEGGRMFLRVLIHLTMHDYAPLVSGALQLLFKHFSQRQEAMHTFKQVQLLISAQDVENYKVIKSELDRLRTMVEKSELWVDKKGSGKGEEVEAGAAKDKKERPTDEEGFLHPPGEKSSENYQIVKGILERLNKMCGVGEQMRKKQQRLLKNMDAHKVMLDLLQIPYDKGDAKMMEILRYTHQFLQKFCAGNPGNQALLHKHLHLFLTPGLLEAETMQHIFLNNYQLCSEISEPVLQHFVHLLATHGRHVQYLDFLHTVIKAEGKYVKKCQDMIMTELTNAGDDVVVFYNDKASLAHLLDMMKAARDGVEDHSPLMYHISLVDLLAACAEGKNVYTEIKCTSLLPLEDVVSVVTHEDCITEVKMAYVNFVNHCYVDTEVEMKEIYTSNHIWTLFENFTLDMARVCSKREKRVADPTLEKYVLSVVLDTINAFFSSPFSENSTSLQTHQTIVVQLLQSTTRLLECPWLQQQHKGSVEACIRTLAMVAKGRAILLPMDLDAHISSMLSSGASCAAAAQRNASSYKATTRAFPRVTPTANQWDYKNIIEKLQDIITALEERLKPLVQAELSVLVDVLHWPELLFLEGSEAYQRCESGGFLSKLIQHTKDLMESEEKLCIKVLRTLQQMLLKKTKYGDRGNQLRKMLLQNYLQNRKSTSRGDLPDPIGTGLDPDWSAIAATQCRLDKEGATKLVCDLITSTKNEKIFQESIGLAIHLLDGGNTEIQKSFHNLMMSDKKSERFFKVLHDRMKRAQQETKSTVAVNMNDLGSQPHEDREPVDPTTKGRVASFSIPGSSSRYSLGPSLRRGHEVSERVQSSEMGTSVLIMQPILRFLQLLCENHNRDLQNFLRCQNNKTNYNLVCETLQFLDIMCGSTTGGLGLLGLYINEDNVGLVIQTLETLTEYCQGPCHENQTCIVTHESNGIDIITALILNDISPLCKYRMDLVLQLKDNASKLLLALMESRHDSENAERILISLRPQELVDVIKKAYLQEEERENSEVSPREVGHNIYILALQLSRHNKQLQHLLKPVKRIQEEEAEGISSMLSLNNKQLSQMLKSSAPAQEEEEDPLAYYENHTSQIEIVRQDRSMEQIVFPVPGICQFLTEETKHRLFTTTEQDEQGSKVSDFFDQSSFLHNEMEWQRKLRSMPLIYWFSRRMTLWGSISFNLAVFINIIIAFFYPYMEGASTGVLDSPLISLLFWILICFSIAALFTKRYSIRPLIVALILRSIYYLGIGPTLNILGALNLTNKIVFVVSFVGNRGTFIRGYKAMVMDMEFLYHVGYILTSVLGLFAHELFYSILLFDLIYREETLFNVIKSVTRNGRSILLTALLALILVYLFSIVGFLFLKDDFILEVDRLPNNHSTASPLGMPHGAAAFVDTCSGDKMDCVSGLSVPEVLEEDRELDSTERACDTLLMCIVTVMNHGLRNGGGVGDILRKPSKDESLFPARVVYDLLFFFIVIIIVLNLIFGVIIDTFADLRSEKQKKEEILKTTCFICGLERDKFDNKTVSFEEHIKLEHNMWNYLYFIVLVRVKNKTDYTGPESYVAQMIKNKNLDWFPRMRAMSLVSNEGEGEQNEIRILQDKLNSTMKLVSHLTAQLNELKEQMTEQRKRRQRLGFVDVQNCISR
UniProt P21796: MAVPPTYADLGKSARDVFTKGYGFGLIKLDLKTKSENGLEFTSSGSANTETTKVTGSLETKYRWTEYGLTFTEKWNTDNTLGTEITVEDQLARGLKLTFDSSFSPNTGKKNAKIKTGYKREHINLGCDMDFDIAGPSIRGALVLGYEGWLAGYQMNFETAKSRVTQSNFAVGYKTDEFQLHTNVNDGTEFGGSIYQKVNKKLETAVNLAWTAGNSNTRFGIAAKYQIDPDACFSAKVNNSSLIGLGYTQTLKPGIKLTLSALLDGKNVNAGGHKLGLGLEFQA

T1: eGFP-tagged full length E-Syt1 (Extended-Synaptotagmin 1) (UniProt Q9BSJ8)
T1 sequence: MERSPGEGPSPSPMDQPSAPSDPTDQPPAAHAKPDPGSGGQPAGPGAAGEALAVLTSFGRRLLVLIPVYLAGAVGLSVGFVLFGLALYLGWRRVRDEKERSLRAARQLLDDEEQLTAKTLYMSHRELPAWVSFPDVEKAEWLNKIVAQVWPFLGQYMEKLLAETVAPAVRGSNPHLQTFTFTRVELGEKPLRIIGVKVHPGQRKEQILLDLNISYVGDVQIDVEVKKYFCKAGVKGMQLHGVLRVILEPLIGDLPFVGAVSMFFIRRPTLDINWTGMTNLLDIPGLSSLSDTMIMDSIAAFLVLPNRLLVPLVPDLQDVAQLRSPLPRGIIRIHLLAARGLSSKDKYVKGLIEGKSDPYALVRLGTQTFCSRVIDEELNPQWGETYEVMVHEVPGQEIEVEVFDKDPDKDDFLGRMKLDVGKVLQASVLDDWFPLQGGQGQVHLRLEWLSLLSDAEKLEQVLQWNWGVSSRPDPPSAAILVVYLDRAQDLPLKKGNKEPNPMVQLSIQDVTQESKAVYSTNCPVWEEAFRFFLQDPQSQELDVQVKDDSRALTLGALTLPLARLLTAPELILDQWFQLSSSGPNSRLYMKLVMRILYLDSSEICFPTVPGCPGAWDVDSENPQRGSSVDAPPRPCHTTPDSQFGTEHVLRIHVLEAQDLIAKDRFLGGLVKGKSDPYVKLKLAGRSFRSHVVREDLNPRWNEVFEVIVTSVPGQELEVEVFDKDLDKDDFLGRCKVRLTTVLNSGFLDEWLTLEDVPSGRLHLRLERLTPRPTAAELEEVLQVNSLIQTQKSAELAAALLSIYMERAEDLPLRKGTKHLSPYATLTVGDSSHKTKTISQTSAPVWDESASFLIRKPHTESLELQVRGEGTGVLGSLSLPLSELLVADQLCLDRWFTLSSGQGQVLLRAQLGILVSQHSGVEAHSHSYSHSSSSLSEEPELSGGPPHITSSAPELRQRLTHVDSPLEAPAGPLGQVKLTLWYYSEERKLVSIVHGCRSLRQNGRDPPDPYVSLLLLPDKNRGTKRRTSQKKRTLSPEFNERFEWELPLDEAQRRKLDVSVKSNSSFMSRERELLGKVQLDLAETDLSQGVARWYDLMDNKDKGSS


How the values were obtained:
[1] = target: IP3R3 (human (endogenous in HeLa)) (UniProt Q14573); experiment: proximity ligation; in situ PLA (Duolink) in fixed, permeabilised shCTR, shPERK and shE-Syt1 HeLa cells with rabbit anti-VDAC1 and mouse anti-IP3R3; dots per nucleus
[2] = target: T1, eGFP-tagged full length E-Syt1 (Extended-Synaptotagmin 1); experiment: co-IP; GFP pull-down with conjugated GFP antibody beads from total lysates of transfected HEK293-T cells; lysis in 1% CHAPS, 100 mM KCl, 50 mM Tris HCl, 150 mM NaCl; 500 ug protein, overnight at 4°C; blot for myc, PERK, GFP, CNX

| Molecule | binding [1] | binding [2] |
| --- | --- | --- |
| VDAC1 (from UniProt P21796 1-283) | binds |  |
| calnexin (CNX) (protein, UniProt P27824 21-592) HDGHDDDVIDIEDDLDDVIEEVEDSKPDTTAPPSSPKVTYKAPVPTGEVYFADSFDRGTLSGWILSKAKKDDTDDEIAKYDGKWEVEEMKESKLPGDKGLVLMSRAKHHAISAKLNKPFLFDTKPLIVQYEVNFQNGIECGGAYVKLLSKTPELNLDQFHDKTPYTIMFGPDKCGEDYKLHFIFRHKNPKTGIYEEKHAKRPDADLKTYFTDKKTHLYTLILNPDNSFEILVDQSVVNSGNLLNDMTPPVNPSREIEDPEDRKPEDWDERPKIPDPEAVKPDDWDEDAPAKIPDEEATKPEGWLDDEPEYVPDPDAEKPEDWDEDMDGEWEAPQIANPRCESAPGCGVWQRPVIDNPNYKGKWKPPMIDNPSYQGIWKPRKIPNPDFFEDLEPFRMTPFSAIGLELWSMTSDIFFDNFIICADRRIVDDWANDGWGLKKAADGAAEPGVVGQMIEAAEERPWLWVVYILTVALPVFLVILFCCSGKKQTSGMEYKKTDAPQPDVKEEEEEKEEEKDKGDEEEEGEEKLEEKQKSDAEEDGGTVSQEEEDRKPKAEEDEILNRSPRNRKPRRE |  | no binding |
